# The supplement of paper PMC11732987, “Enantioselective OTUD7B fragment discovery through chemoproteomics screening and high-throughput optimisation” (Communications Chemistry, 2025)
# By UniProt entry, the sequences of proteins in these tests, tags left out. Where a name states a change or a piece, a line headed by the entry shows the natural chain unless it says otherwise. Residues count along the entry.
# UniProt O43148, whole entry, looked up: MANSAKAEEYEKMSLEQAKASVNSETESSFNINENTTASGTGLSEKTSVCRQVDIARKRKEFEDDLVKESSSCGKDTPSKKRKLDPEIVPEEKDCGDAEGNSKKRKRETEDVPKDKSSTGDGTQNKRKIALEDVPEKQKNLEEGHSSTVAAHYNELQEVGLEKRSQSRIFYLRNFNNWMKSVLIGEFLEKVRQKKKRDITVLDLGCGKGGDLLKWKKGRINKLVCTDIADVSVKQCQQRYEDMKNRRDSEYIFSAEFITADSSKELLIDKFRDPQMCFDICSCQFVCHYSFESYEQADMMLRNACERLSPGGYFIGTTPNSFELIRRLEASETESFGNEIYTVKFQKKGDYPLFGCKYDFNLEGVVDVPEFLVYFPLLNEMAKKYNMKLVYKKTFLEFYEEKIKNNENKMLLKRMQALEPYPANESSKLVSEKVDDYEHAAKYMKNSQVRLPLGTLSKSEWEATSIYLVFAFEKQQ
# UniProt Q6P087: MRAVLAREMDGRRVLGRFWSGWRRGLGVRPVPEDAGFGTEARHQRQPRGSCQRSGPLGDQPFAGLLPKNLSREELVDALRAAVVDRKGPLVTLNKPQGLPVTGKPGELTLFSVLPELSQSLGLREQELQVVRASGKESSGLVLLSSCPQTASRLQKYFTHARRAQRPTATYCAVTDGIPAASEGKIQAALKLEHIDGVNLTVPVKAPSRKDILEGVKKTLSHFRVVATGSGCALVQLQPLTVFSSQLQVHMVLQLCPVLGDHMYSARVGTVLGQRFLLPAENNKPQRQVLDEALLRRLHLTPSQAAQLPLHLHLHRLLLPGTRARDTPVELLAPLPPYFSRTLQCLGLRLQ
# UniProt P13489, 65-86: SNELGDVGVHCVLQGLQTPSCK
# UniProt Q8TDP1, 23-46: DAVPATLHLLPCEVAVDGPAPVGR
# UniProt Q14684: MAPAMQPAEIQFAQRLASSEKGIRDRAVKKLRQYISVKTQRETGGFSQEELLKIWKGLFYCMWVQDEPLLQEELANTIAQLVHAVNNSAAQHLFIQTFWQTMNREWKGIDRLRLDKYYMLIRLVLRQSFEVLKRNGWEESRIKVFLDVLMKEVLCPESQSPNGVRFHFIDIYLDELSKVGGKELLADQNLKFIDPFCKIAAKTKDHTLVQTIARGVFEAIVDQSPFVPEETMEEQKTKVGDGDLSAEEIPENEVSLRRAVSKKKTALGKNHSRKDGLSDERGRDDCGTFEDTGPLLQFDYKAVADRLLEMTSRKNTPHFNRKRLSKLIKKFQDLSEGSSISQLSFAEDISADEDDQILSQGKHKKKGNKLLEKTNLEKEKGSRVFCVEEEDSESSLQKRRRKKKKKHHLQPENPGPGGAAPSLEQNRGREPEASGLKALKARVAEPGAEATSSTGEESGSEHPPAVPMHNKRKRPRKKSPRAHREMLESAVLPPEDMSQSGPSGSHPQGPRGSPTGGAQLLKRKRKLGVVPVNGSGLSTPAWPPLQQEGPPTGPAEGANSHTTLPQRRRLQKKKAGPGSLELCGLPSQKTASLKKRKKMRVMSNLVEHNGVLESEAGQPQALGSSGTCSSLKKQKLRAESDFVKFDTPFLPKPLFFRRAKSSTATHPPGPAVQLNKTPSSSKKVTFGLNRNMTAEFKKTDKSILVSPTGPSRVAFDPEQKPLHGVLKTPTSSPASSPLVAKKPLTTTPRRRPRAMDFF
# UniProt Q9Y3V2: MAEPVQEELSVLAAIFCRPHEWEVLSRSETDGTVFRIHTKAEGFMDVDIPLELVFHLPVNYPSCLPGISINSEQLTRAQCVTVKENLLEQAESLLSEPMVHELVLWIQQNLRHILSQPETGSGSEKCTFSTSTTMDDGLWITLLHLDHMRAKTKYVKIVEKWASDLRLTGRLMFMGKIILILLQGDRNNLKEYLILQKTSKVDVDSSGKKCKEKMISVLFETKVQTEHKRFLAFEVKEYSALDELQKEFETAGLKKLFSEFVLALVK
# UniProt O60942: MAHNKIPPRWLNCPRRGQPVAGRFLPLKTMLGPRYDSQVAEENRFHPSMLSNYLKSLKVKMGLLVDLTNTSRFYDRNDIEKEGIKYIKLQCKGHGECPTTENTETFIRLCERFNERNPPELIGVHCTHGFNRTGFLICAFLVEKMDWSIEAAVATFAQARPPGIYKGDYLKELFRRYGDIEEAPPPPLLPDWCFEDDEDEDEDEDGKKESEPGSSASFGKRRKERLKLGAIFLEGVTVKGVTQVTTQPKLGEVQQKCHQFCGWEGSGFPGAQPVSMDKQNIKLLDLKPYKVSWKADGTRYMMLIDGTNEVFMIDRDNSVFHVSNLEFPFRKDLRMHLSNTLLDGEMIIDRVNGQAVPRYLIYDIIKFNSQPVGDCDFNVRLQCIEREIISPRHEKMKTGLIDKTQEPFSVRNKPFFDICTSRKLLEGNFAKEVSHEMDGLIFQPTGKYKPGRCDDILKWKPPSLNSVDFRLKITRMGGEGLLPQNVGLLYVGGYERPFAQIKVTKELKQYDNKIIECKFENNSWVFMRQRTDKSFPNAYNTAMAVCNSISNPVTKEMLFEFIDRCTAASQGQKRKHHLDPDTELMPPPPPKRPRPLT
# UniProt P51812: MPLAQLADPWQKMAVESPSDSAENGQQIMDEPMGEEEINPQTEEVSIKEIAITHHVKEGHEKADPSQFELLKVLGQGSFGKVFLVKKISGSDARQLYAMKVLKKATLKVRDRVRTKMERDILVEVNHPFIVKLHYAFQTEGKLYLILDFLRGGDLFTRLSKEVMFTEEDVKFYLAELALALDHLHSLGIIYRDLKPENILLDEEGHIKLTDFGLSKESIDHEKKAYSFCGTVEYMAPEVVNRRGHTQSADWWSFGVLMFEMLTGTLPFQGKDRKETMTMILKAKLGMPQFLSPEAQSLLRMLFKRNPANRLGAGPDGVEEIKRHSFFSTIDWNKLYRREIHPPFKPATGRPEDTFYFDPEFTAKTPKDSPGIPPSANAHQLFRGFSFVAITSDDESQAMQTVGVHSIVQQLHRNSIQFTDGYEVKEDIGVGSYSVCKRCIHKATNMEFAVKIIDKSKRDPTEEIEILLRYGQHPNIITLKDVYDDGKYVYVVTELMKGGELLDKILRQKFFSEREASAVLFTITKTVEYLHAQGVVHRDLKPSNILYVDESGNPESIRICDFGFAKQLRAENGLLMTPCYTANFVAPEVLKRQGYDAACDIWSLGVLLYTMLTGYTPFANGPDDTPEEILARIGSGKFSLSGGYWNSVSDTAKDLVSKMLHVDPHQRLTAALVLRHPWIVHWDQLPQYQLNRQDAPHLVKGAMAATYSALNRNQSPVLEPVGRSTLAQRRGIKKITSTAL
# UniProt Q05823: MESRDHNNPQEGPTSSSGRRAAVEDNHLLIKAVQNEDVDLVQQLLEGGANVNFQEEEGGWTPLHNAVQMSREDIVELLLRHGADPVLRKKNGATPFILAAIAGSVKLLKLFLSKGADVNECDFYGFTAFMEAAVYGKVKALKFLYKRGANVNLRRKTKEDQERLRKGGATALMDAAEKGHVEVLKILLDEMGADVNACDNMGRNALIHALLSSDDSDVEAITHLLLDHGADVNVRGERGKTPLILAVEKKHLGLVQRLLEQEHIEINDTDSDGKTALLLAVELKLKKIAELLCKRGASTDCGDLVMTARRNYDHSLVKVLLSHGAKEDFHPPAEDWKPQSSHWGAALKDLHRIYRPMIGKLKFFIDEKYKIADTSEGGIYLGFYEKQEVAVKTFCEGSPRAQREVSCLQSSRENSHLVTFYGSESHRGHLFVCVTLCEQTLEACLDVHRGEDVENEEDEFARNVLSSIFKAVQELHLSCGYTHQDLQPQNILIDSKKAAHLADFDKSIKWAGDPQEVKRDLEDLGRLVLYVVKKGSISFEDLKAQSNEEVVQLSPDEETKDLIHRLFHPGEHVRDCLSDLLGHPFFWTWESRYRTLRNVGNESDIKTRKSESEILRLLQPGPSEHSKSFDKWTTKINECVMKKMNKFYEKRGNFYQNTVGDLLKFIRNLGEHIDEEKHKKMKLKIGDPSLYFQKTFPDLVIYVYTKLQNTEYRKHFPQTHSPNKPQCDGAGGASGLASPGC
# UniProt O75818: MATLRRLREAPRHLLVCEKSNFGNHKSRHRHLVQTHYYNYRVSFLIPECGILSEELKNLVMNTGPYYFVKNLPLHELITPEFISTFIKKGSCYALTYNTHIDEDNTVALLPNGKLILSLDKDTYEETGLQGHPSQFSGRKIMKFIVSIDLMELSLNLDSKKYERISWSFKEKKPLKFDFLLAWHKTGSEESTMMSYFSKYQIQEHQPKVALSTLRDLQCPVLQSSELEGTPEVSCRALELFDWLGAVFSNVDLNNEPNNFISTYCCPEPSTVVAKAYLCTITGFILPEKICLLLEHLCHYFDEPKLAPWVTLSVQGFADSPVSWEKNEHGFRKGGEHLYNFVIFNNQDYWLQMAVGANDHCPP
# UniProt Q9BST9: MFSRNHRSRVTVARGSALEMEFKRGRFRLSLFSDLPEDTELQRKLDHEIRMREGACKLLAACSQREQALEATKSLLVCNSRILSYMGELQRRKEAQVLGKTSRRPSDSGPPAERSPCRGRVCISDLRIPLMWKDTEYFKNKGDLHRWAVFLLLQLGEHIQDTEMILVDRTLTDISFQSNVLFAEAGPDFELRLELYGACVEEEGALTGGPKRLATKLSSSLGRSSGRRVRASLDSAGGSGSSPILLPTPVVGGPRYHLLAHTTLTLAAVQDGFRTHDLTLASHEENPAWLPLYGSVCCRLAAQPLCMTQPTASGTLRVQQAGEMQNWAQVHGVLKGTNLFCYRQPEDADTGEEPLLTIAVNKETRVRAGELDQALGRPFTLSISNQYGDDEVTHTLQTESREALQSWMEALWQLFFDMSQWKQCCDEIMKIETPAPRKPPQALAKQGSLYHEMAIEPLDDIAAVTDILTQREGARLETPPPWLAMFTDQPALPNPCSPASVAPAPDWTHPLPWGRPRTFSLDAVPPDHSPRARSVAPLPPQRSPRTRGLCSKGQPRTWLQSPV
# UniProt P28702: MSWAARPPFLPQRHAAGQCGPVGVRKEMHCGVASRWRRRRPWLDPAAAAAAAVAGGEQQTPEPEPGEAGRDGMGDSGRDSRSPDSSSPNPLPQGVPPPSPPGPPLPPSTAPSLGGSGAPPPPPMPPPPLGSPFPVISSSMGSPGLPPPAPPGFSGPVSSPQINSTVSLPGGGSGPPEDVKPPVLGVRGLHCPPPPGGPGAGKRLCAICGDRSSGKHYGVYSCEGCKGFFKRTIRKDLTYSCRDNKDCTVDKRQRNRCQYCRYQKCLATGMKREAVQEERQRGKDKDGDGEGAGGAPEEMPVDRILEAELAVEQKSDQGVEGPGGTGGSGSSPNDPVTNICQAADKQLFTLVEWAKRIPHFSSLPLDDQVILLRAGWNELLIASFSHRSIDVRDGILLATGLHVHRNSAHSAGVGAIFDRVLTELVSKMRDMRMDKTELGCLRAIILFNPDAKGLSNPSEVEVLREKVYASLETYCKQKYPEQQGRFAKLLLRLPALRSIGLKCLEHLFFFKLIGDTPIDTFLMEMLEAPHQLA
# UniProt Q96A37: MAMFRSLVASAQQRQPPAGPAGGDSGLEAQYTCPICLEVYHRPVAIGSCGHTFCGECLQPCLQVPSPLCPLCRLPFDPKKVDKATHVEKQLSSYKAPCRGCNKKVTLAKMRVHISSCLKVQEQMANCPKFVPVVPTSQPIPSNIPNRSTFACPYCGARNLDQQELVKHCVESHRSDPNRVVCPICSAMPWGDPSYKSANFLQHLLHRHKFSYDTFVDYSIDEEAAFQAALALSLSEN
# UniProt Q96T51: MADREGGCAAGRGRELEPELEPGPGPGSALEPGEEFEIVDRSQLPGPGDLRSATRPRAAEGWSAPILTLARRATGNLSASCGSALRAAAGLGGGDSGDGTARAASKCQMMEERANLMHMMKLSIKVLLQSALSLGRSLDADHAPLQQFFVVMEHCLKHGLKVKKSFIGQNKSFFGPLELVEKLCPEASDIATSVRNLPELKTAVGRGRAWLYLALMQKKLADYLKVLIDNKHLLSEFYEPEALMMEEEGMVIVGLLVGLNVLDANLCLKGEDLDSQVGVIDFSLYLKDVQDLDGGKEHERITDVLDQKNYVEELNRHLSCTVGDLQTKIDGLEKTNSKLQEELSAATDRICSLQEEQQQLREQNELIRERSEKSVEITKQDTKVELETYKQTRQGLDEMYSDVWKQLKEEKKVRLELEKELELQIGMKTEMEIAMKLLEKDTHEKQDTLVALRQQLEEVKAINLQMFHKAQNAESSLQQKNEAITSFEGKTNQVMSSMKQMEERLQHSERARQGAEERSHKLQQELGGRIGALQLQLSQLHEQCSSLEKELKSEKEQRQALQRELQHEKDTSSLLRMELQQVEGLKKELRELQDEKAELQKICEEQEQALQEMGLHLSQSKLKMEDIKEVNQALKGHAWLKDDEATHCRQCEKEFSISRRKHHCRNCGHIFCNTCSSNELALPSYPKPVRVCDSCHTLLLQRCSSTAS
# This is one part of the list. The data scatter; read single values as rough.
# Compound: ClCC(=O)N[C@H]1CCCc2ccccc12
# Test: log2 mean competition ratio of IA-DTB cysteine labelling (DMSO/compound) (log2 ratio); higher = stronger cysteine engagement by compound
# Details: 200 µM; treatment time: 4 h; cell line lysate: HEK293T
# Protocol: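 IA-DTB competitive cysteine chemoproteomics in HEK293T RIPA lysate. Lysates were treated with compound 29 or 30 at 50 or 200 µM for 4 h, then IA-DTB (500 µM, 1 h), trypsin-digested, NeutrAvidin-enriched and analysed by diaPASEF. Competition ratio = intensity DMSO / intensity compound (n=4 treated, n=64 DMSO); binding: mean log2 CR ≥ 1 and p ≤ 0.05 plus QC filters. Target is the cysteine site.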
row,Target,log2 mean competition ratio
1,RSL1D1 C197 (UniProt O76021),0.075
2,RPS17 C35 (UniProt P08708),-0.227
3,RNMT C225 (UniProt O43148),-0.0513
4,RPUSD3 C147 (UniProt Q6P087),0.621
5,RNH1 C38 (UniProt P13489),0.157
6,RNASEH2C C34 (UniProt Q8TDP1),-0.0252
7,RNF213 C4570,0.354
8,RRP1B C386 (UniProt Q14684),-0.367
9,RPS11 C131 (UniProt P62280),-0.269
10,RND2 C18,0.464
11,RNPC3 C110 (UniProt Q96LT9),-0.0559
12,RWDD3 C80 (UniProt Q9Y3V2),0.0939
13,RNGTT C565 (UniProt O60942),0.0934
14,RPL10 C105,0.182
15,RNF213 C3008,0.108
16,RRP12 C102 (UniProt Q5JTH9),0.145
17,ROR1 C575,-0.489
18,RPS6KA3 C229 (UniProt P51812),0.226
19,RNMT C206 (UniProt O43148),0.309

# 2 entries from above, reformatted.
row	Target	log2 mean competition ratio
3	RNMT C225 (UniProt O43148)	-0.0513
13	RNGTT C565 (UniProt O60942)	0.0934

# Remaining list, next part

row,Target,log2 mean competition ratio
1,RNASEL C198 (UniProt Q05823),-0.15
2,RPP40 C17 (UniProt O75818),-0.224
3,RTRAF C19 (UniProt Q9Y224),-0.113
4,ROR1 C482,-0.0811
5,RPL14 C42 (UniProt P50914),-0.113
6,RPTOR C362 (UniProt Q8N122),0.0107
7,SAC3D1 C84 (UniProt A6NKF1),-0.0855
8,RTKN C306 (UniProt Q9BST9),-0.149
9,RXRB C475 (UniProt P28702),0.0844
10,RPL7A C182 (UniProt P62424),0.0447
11,RNF214 C315 (UniProt Q8ND24),-0.0672
12,RNF166 C127 (UniProt Q96A37),-0.0274
13,RUFY1 C107 (UniProt Q96T51),0.303
14,RNH1 C220 (UniProt P13489),-0.139
15,RRM1 C254 (UniProt P23921),-0.191
16,RNF123 C977 (UniProt Q5XPI4),0.0917
17,"RNH1_(C75,C75,C85,C85) (UniProt P13489)",-0.392
18,RTN4 C912,-0.439
